# Source: PubChem BioAssay AID720540 (National Center for Advancing Translational Sciences (NCATS), 2013)
# Protein sequences, listed by entry. Tags and fused reporters are not part of them. Lines headed by an entry give the natural chain unless they say otherwise; changes in a name come on top.
# UniProt O00167: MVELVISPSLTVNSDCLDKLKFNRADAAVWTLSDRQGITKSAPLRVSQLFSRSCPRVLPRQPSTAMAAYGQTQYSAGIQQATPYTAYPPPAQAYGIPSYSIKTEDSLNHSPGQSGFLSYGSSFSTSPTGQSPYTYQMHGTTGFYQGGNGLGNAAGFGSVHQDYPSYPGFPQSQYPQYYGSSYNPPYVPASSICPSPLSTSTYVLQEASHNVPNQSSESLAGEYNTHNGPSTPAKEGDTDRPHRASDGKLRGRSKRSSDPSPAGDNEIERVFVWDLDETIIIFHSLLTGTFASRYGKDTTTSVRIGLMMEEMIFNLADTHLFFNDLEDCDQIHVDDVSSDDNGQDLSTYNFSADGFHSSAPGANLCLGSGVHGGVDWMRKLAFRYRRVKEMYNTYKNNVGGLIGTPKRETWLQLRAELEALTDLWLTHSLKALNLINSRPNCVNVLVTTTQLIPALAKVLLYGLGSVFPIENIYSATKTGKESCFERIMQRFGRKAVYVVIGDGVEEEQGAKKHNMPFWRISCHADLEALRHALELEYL
# In all, about 1,300 compounds went through this assay and about 460 (35%) were called active. Inconclusive results, whose numbers are uncertain, are shown with a selection of clear calls. The call rests on the fitted dose curve; in most records, active means well fitted inhibition curve with a large enough effect; inconclusive means small, poorly fitted or top-dose-only effect; inactive means flat fitted curve, though single readings scatter. A potency beside an inconclusive call is a rough fit, not a confirmed value.
# Molecular target: Protein phosphatase EYA2 (Homo sapiens) (UniProt O00167)
# Assay: qHTS for Inhibitors of the Phosphatase Activity of Eya2: Confirmatory Assay for Cherry-picked Compounds; further: nearly all actives have a fitted effect of over 65% in size;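 on activity change, negative = inhibition: 0% = DMSO wells and -100% = EGTA control giving full inhibition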
# Conditions: purified EYA2 phosphatase activity, qHTS confirmation; activity change, negative = inhibition: at 46.1 µM (top of the series)
# Outline: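 Eya2 (0.2 uM working solution) preincubated 10 min at room temperature with compound in pH 7.5 HEPES buffer with MgCl2, BSA, DTT. OMFP added (50 uM working solution), 10 min more; fluorescence 485/525 nm, normalized to EGTA and DMSO.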
# Potency means the concentration at half of the fitted maximal effect.
SMILES,Potency,"activity change, negative = inhibition"
Cc1cc2oc(C(=O)N(Cc3ccc(N(C)C)cc3)CC3CCCO3)c(C)c2cc1C (centres undefined),active: 8.49 µM,–
CCCCNc1ccc(/C=C2\C=Cc3ccccc32)cc1,"inconclusive: 10.7 µM [inhibitor, partial curve]",–
O=C(CN1C(=O)/C(=C/c2ccco2)SC1=S)Nc1ccc(C(=O)O)c(O)c1,active: 16.9 µM,–
CC(=O)Nc1ccc(NC(=O)CSc2nc(N)c(NC(=O)c3ccccc3F)c(=O)[nH]2)cc1,"inconclusive: 19 µM [inhibitor, single point]",–
CS(=O)(=O)c1ccc(-c2nnc(NC(=O)C3=COCCO3)o2)cc1,–,inactive: -26%
CN(Cc1ccccc1F)c1nc(-c2cccnc2)nc2ccccc12,–,inactive: -29%
Cc1cc(C)c(C#N)c(Sc2nnnn2-c2ccccc2)n1,–,inactive: -3.69%
CCOC(=O)c1ccc(NC(=S)N2CCN(CCN=CC3=C(O)CC(c4ccccc4)CC3=O)CC2)cc1 (centres undefined),–,inactive: -0.24%
CC(C)c1nc2sc3c(SCC(N)=O)ncnc3c2c2c1CCC2,"inconclusive: 1.2 µM [inhibitor, full curve]",–
COc1ccc(Cc2nc3c4c(ncn3n2)Oc2ccc3ccccc3c2C4c2ccc(OC)c(OC)c2)cc1 (centres undefined),–,inactive: -18.2%
COc1ccc(S(=O)(=O)N2CCN(C(=O)c3cc4c(s3)CCC4)CC2)cc1,–,inactive: -25.3%
C[C@@H](c1ccccc1)N1C[C@H](COCc2ccccc2)Oc2cc(N3CC[C@@H](N(C)C)C3)ccc2S1(=O)=O,"inconclusive: 16.9 µM [inhibitor, partial curve]",–
Cc1ccc(OCC(=O)Nc2ccccc2N2CCCC2)c(C)c1,"inconclusive: 16.9 µM [inhibitor, partial curve]",–
O=c1cc(Nc2ccc3c(c2)OCO3)[nH]c(=O)n1-c1ccc(Br)cc1,"inconclusive: 19 µM [inhibitor, partial curve]",–
O=C1C=C(Nc2ccccc2)C(=O)c2ccccc21,active: 6.01 µM,–
O=C(CSc1ccc2c(c1)OCCO2)Nc1ccc2c(c1)OCO2,–,inactive: -15.6%
O=C(CSc1ncccc1-c1nc2ccccc2[nH]1)NCc1ccco1,"inconclusive: 21.3 µM [inhibitor, partial curve]",–
Cc1ccc(-c2n[nH]c(=O)c3ccccc23)cc1S(=O)(=O)N(C)C,"inconclusive: 13.5 µM [inhibitor, partial curve]",–
Cc1cccc(Nc2nnc(SCC(=O)NCC3CCCO3)s2)c1 (centres undefined),"inconclusive: 19 µM [inhibitor, partial curve]",–
COc1cc(N(C)C)ccc1/C=C1\C=Cc2ccccc21,active: 7.57 µM,–
Cc1cc(NC(=O)CS(=O)(=O)c2cn(Cc3cccc(Br)c3)c3ccccc23)no1,–,inactive: -26.3%
Cc1ccc(-n2c(O)c(C=NCc3ccccn3)c3ccccc3c2=O)cc1,"inconclusive: 21.3 µM [inhibitor, single point]",–
Cc1ccc(N=Cc2cccc(O)c2O)c(C)c1,–,inactive: -21.4%
CCN(CC)c1ccc(N=Cc2cc(Br)ccc2O)cc1,–,inactive: -1.65%
COc1cc2[nH]cc(C(=O)NCc3ccccc3)c(=O)c2cc1OC,active: 5.36 µM,–

# By substructure, the compounds so far with an aryl thioether with sulfur outside any ring (six)
SMILES,Potency,"activity change, negative = inhibition"
CC(=O)Nc1ccc(NC(=O)CSc2nc(N)c(NC(=O)c3ccccc3F)c(=O)[nH]2)cc1,"inconclusive: 19 µM [inhibitor, single point]",–
Cc1cc(C)c(C#N)c(Sc2nnnn2-c2ccccc2)n1,–,inactive: -3.69%
CC(C)c1nc2sc3c(SCC(N)=O)ncnc3c2c2c1CCC2,"inconclusive: 1.2 µM [inhibitor, full curve]",–
O=C(CSc1ccc2c(c1)OCCO2)Nc1ccc2c(c1)OCO2,–,inactive: -15.6%
O=C(CSc1ncccc1-c1nc2ccccc2[nH]1)NCc1ccco1,"inconclusive: 21.3 µM [inhibitor, partial curve]",–
Cc1cccc(Nc2nnc(SCC(=O)NCC3CCCO3)s2)c1 (centres undefined),"inconclusive: 19 µM [inhibitor, partial curve]",–

# Later entries.

SMILES,Potency,"activity change, negative = inhibition"
Brc1ccc(Cn2c(-c3ccc(Br)o3)nc3ccccc32)o1,"inconclusive: 16.9 µM [inhibitor, partial curve]",–
N#Cc1c(-c2ccccc2Cl)noc1/C=C/Nc1ccc(C(=O)O)cc1,"inconclusive: 19 µM [inhibitor, partial curve]",–
Oc1c(C(c2cccs2)N2CCN(c3ccccc3)CC2)sc2ncnn12 (centres undefined),"inconclusive: 19 µM [inhibitor, partial curve]",–
CCn1cc(C(=O)N[C@@H](C)C(=O)NCCCn2ccnc2)c(=O)c2cc3c(cc21)OCO3,–,inactive: -9.75%
COc1ccccc1C(CCNCc1ccc(N(C)C)cc1)c1ccc(OC(C)C)cc1 (centres undefined),active: 6.01 µM,–
CCOc1ccc(S(=O)(=O)NCc2ccc(C)cc2)c2cccnc12,–,inactive: -14.1%
Cc1ccc(C(=O)N2CCN(c3ccc4c(c3)C3CC4CCN3C(=O)OCc3ccccc3)CC2)cc1 (centres undefined),"inconclusive: 9.53 µM [inhibitor, partial curve]",–
COc1cc(NC(=O)c2cccs2)c(OC)cc1NC(=O)Cc1ccccc1,active: 10.7 µM,–
CSc1nc(NCCOCCO)c2sc3nc(-c4ccco4)c4c(c3c2n1)CCC4,active: 7.57 µM,–
COc1ccc(N(CC(=O)N2CCCCC2)S(=O)(=O)c2c(C)nn(C)c2C)cc1,–,inactive: -2.46%
O=C1CCCC2=C1C(c1ccco1)Nc1ccc3ccccc3c12 (centres undefined),"inconclusive: 10.7 µM [inhibitor, partial curve]",–
COc1cccc(C(=O)C2CCCN(CC3=Cc4cc(OC)ccc4OC3)C2)c1 (centres undefined),"inconclusive: 10.7 µM [inhibitor, partial curve]",–
CN(C)c1ccc(C=C2C=Cc3ccccc32)cc1,active: 3.79 µM,–
COc1ccc(N2CCN(C(c3ccco3)c3sc4nc(C)nn4c3O)CC2)cc1 (centres undefined),–,inactive: -27.1%
O=C(COC(=O)CC1CCCC1)Nc1ccccc1[N+](=O)[O-],"inconclusive: 13.5 µM [inhibitor, partial curve]",–
CCc1cc2c(=O)[nH]c(-c3ccccn3)nc2s1,active: 1.69 µM,–
Cc1nnc(NC(=O)CSc2ccc3nnc(-c4ccccn4)n3n2)s1,"inconclusive: 21.3 µM [inhibitor, single point]",–
COc1cc(C(C(=O)NC2CCCCC2)N(C(=O)Cc2c[nH]c3ccccc23)c2ccc(C)cc2)cc(OC)c1OC (centres undefined),–,inactive: -26.6%
COc1cc(/C=C2\C(C)=C(C#N)c3nc(N)c(C#N)c(C)c32)ccc1OCC(=O)O,active: 16.9 µM,–
CCc1nc2ccc(C(=O)NCCCN(C)C)cn2c1N(C)Cc1ccc(OC)cc1,–,inactive: -5.22%
O=C(NNC(=O)c1cc2cc(Br)ccc2oc1=O)c1ccc(O)cc1,–,inactive: -7.2%
O=C(O)c1ccc(CSc2nc3ccccc3c(=O)n2-c2ccccc2)cc1,–,inactive: -26.9%
CCCn1nc(C(=O)Nc2cc(OCC)c(N3CCOCC3)cc2OCC)c2ccccc2c1=O,"inconclusive: 3.38 µM [inhibitor, full curve]",–
COc1cccc(-c2sc3ccc(OC)cc3c2-c2ccc(OCCN(C)C)cc2)c1,"inconclusive: 16.9 µM [inhibitor, partial curve]",–

# A second format for some results above.
SMILES | Potency | activity change, negative = inhibition
N#Cc1c(-c2ccccc2Cl)noc1/C=C/Nc1ccc(C(=O)O)cc1 | inconclusive: 19 µM [inhibitor, partial curve] | –
O=C(NNC(=O)c1cc2cc(Br)ccc2oc1=O)c1ccc(O)cc1 | – | inactive: -7.2%
